Primary screen of a compound library

Source: ChEMBL document CHEMBL3988442, “University of Dundee, Small-Polar-MMV Screening Library” (2021).

Mtb growth Cornell: 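Whole-cell assay for inhibitors of Mycobacterium tuberculosis growth, labelled Cornell in the record; the read-out is not stated. The concentration is filed as 10 mM, unlikely as a test dose, so the dose is not known. The record gives no direction; compounds strong in two other growth screens of this library score well above the rest, so higher reads as stronger inhibition. About 53,000 compounds were tested under these conditions; 1.7% (about 900) showed 50% or more at least once.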
Mtb heat-shock: 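Assay on Mycobacterium tuberculosis, filed only as a heat shock assay from Cornell; the read-out is not stated. The concentration is filed as 10 mM, unlikely as a test dose, so the dose is not known. Higher reads as stronger inhibition (inferred: compounds with an IC50 in retests scored well above the rest). About 69,000 compounds were tested under these conditions; 1.4% (about 930) showed 50% or more at least once.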

Results are given as percent effect. How 0% and 100% were set is not recorded. Most values in the screen are low, and negative values occur. This is an unselected part of the compounds tested. A dash means the value is not listed here; it may have been measured.

Compound	Mtb growth Cornell	Mtb heat-shock
CC(C)C(C)NC(=O)Nc1cccc2c1CCN(S(C)(=O)=O)C2 (stereo not shown)	-23.84	-1.255
Cc1ccc(C(=O)NCCCNc2ccc(C(F)(F)F)cn2)cc1	-	31.57
O=C(O)C(F)(F)F.[H][C@@]12CN(C(=O)c3ccncc3F)C[C@]1([H])OCCN2CC(=O)NC	28.78	-6.77
[H][C@@]12CCCO[C@]1([H])[C@H](N(C)Cc1ccco1)CN(Cc1ccoc1)C2	11.84	-44.08
CC(C(=O)NC1(C#N)CCCCC1)N1CCc2c(ncn2C2CC2)C1 (stereo not shown)	-	-103.7
CC(NC(=O)NCCCN(C)S(C)(=O)=O)c1ccncc1 (stereo not shown)	-	-2.244
CCC[C@H]1CN(C(=O)c2cc(-c3cccs3)n(C)n2)C[C@@H]1N	10.24	22.45
O=C(CN1CCOC(Cn2cccn2)C1)NCc1cccs1 (stereo not shown)	0.5923	-0.5047
COCCCNc1c(-c2ccccc2)c(=O)c1=O	-	2.898
CCN1CC2(CC1=O)CN(C(=O)NC(C)C)CCN(S(C)(=O)=O)C2 (stereo not shown)	-8.659	19.12
O=C(CCc1ccccc1F)NS(=O)(=O)c1ccc2c(c1)OCCCO2	-	-4.992
CCSc1ccc(NC(=O)NC(C)c2ccncc2)cn1 (stereo not shown)	2.219	5.954
[H][C@@]12CN(C(=O)Nc3ccccc3)C[C@]1([H])OCCN2C(=O)c1ccco1	16.15	10.78
O=C(CCC1CCCC1)N1CCC(O)(C(F)(F)F)C1 (stereo not shown)	33.35	43.95
COc1ccc(NC(=O)C2CC(=O)N(C)C2)cn1 (stereo not shown)	-4.384	4.134
CCN1CCCC12CCN(Cc1cccnc1OC)CC2.O=C(O)C(F)(F)F.O=C(O)C(F)(F)F	7.987	9.418
Cn1cc(CNC2CCc3c(ccc(=O)n3C)C2)cn1 (stereo not shown)	12.05	14.15
CN(C)CCNC(=O)Cc1cccc(I)c1	-22.36	-28.71
O=C(O)C(F)(F)F.[H][C@@]12CCCO[C@]1([H])[C@H](NC(=O)c1cnoc1C)CN(CC1CC1)C2	-6.628	28.88
O=C(CCCN1CCOC1=O)Nc1cnn(-c2ccccc2Cl)c1	-	-13.47
CC(CC#N)N(C)Cc1ccccc1F (stereo not shown)	0.09112	6.188
CC(=O)NCC(=O)N1CCCC(C(=O)c2ccc(C(C)(C)C)cc2)C1 (stereo not shown)	-	-1.165
CC(O)CN1CCC(CN(C)CCC(=O)NC2CCCC2)CC1 (stereo not shown)	18.47	-13.63
O=C(NCCc1ccncc1)C1CCN(Cc2ccco2)CC1	-3.401	-10.11
CC(=O)c1ccc(C(=O)N2CCC(c3cc(O)nc(C)n3)CC2)s1	13.61	1.154
CCCC(=O)NS(=O)(=O)c1ccc(C#N)c(C(F)(F)F)c1	2.675	6
COC(=O)c1ccoc1COC(=O)CCc1ccc(OC)c(OC)c1	4.659	-20.09
Cc1nc(C)n(CC2CCCCN2Cc2cn3ccccc3n2)n1 (stereo not shown)	-36.82	-21.56
CCSc1ncc(CN2CCN(c3ncc(C)c(N)n3)CC2)cn1	-2.353	-7.185
Cc1cc(NCCc2c(C)n[nH]c2C)nc(-c2cccnc2)n1	-17.59	7.737
Cc1cc2c(N3CCCC(OCc4cccnc4)C3)ncnc2s1 (stereo not shown)	5.685	19.64
Cc1cc(C(=O)Nc2nc3c(s2)CN(S(=O)(=O)C2CC2)CC3)c(C)o1	8.311	8.313
CO[C@@H](C(=O)NC1CCOCC1)c1ccccc1	7.552	1.125
Cc1cnc(-c2nc(C3CCN(Cc4ccccc4Cl)CC3)no2)cn1	26.39	-3.618
Cc1cccc(C(=O)N2CCC3(CC(C(=O)N(C)C(C)C)=NO3)C2)c1 (stereo not shown)	17.17	-5.061
Cc1nn2cccnc2c1C(=O)N1CCCC(Nc2ccccc2)C1 (stereo not shown)	-	4.512
Cc1cc(-c2cnc(N3CCOCC3)nc2-c2cccnc2C)on1	6.202	7.89
CCc1noc(CN(C)C2CCN(c3sccc3C#N)C2=O)n1 (stereo not shown)	-	-37.01
O=C(CN1CCCC1)N1CCCC(CNS(=O)(=O)Cc2ccccc2)C1 (stereo not shown)	-13.92	-8.634
O=C(O)C(F)(F)F.[H][C@@]12CCN(Cc3nccs3)C[C@@]1([H])O[C@@H](C(=O)NCCOC)C2	4	-4.659
Cc1ccc(S(=O)(=O)N2CCC3(CC(C(=O)NC4CCC4)=NO3)C2)cc1 (stereo not shown)	19.1	-20.67
COCCN(C)C[C@@H]1CN(C(=O)c2cccc(C(F)(F)F)c2)C[C@@H]1CO	-	4.112
Cn1nc(C(=O)N2CCCCC2c2nc3cc(F)ccc3[nH]2)ccc1=O (stereo not shown)	-9.449	-21.2
OC1CCN(c2ccnc(NCCc3ccccc3Cl)n2)C1 (stereo not shown)	19.91	14.67
COCCN1C(=O)CCC12CCCN(Cc1ccccc1F)C2.O=C(O)C(F)(F)F.O=C(O)C(F)(F)F (stereo not shown)	-	-14.44
Cn1cc(CN2CCC3(CC2)C(=O)Nc2ccccc23)cn1.O=C(O)C(F)(F)F	15.28	-51.5
Cc1ccc(C(=O)N2CCC3(CC2)CN(CCN(C)C)C(=O)O3)c(F)c1	-6.255	97.5
Cc1cc(C2CCCN(CCNS(=O)(=O)c3ccccc3)C2)n[nH]1 (stereo not shown)	-15.7	-4.116
Cc1ccc(CNC(=O)c2nc3c(o2)CN(c2ncccn2)C3)o1	23.35	-7.325
Cc1cc(C)cc(C(=O)N2CCCC3(CCCC(=O)N3C)C2)c1 (stereo not shown)	-84.9	12.2
COc1ccccc1CNC(=O)N1CCCC(c2nncn2C)C1 (stereo not shown)	18.63	12.9
Cc1nc(C(=O)N(CC2CCCO2)c2ccncc2)cs1 (stereo not shown)	26.86	-1.282
COCCCNC(=O)Nc1cccc2c1CCN(S(C)(=O)=O)C2	-24.88	-8.413
CC1(C)CC(N2Cc3nc(N4CCCC4)ncc3C2=O)CC(C)(C)N1	-	8.213
[H][C@@]12OCCN(C(=O)c3ccc(OC)c(F)c3)[C@@]1([H])CC[C@H]2OCC1CC1	18.85	6.321
CC(C)N(C)C(=O)C1=NOC2(CCN(C(=O)NCc3cccnc3)C2)C1 (stereo not shown)	12.5	-3.746
CN(Cc1nncn1C)c1nccc(N2CCC(O)CC2)n1	5.696	-1.019
CC(C)(CN)NS(=O)(=O)c1cccc(F)c1F.Cl	-4.396	6.61
Cc1ccc(CNCC2CNc3cc(C)nn3C2)cn1 (stereo not shown)	-	-50.09
Cc1cc(C)nc(CN2CCOC(c3ccc(Cl)cc3)C2)n1 (stereo not shown)	24.95	-1.685
[H][C@]12CCC(=O)N(Cc3csc(C)n3)[C@@]1([H])CCN2C(=O)COCC	-5.383	-8.582
CN(C)C1(CNC(=O)C/C=C/c2ccc(F)cc2)CCOCC1	-19.05	-3.054
CSc1ncccc1C(=O)N(C)CCc1scnc1C	-18.93	-50.38
Cc1nn(C)c(NC(=O)C2SCCc3ccccc32)c1C (stereo not shown)	15.05	11.49
CCn1cc(NC(=O)CN2CCC(Oc3ccc(F)cc3)CC2)c(C)n1.Cl	59.25	-4.397
[H][C@@]12OCCN(S(=O)(=O)c3cn(C)cn3)[C@@]1([H])CC[C@H]2OCC1CC1	3.642	-14.62

The last 7 entries again:

| Compound | Mtb growth Cornell | Mtb heat-shock |
|---|---|---|
| `Cc1cc(C)nc(CN2CCOC(c3ccc(Cl)cc3)C2)n1` (stereo not shown) | 24.95 | -1.685 |
| `[H][C@]12CCC(=O)N(Cc3csc(C)n3)[C@@]1([H])CCN2C(=O)COCC` | -5.383 | -8.582 |
| `CN(C)C1(CNC(=O)C/C=C/c2ccc(F)cc2)CCOCC1` | -19.05 | -3.054 |
| `CSc1ncccc1C(=O)N(C)CCc1scnc1C` | -18.93 | -50.38 |
| `Cc1nn(C)c(NC(=O)C2SCCc3ccccc32)c1C` (stereo not shown) | 15.05 | 11.49 |
| `CCn1cc(NC(=O)CN2CCC(Oc3ccc(F)cc3)CC2)c(C)n1.Cl` | 59.25 | -4.397 |
| `[H][C@@]12OCCN(S(=O)(=O)c3cn(C)cn3)[C@@]1([H])CC[C@H]2OCC1CC1` | 3.642 | -14.62 |